# PubChem BioAssay AID1259308 – NCATS | 2017
# Screen: 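Candidate targets for better recombinant protein yield in mammalian cells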 (primary screen)
# Cells: human HEK293 embryonic kidney cells stably expressing firefly luciferase (HEK-CMV-Luc2-Hygro)
# Knock-down reagent: single siRNA against human genes, 0.8 pmol siRNA per well
# Time to read-out: 72 h
# Measured: 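Reporter luminescence and viable-cell signal on separate replicate plates, given as percent of non-targeting control and median/MAD z-scores, plus per-cell luciferase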
# Reading the numbers: total luciferase, z-score and total luciferase, % of control: higher = more reporter protein produced; luciferase per cell, z-score: higher = more reporter output per viable cell
# Call rule: 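Active when the median/MAD z-score for overall luciferase is greater than 3; a gene was taken forward for validation with new siRNAs if at least two of its three siRNAs passed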
# Calls: active = raised luciferase; inactive = no rise
# The deposit covers about 59,000 reagents; below is an unselected part. Of all reagents, about 1,510 (2.6%) are marked active. 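Calls use total luciferase alone and ignore viability, so some active siRNAs may act by altering cell number.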 Unmarked entries are inactive. Reagents against one gene are numbered here. Not all columns of the deposit are shown.
Target gene,reagent no.,"total luciferase, z-score","total luciferase, % of control","luciferase per cell, z-score"
IZUMO2 (IZUMO family member 2),1,-0.142,79.1,-0.38
IZUMO2 (IZUMO family member 2),2,1.28,107,0.713
IZUMO2 (IZUMO family member 2),3,5.35 (active),188,3.12
WDR33 (WD repeat domain 33),1,-1.37,54.7,0.335
WDR33 (WD repeat domain 33),2,-1.23,57.3,-1.33
WDR33 (WD repeat domain 33),3,-1.24,57.3,-1.42
RBPJL,1,-0.603,69.9,0.249
RBPJL,2,0.329,88.4,0.36
RBPJL,3,1.43,110,1.18
NQO1 (NAD(P)H quinone dehydrogenase 1),1,0.226,86.4,0.736
NQO1 (NAD(P)H quinone dehydrogenase 1),2,0.301,87.9,0.282
NQO1 (NAD(P)H quinone dehydrogenase 1),3,-0.348,75,-0.687
HINT1P1 (histidine triad nucleotide binding protein 1 pseudogene 1),1,-0.656,68.8,-0.939
HINT1P1 (histidine triad nucleotide binding protein 1 pseudogene 1),2,-0.137,79.2,-0.223
HINT1P1 (histidine triad nucleotide binding protein 1 pseudogene 1),3,0.4,89.8,0.472
EMILIN1 (elastin microfibril interfacer 1),1,-0.0923,80.1,-0.0655
EMILIN1 (elastin microfibril interfacer 1),2,0.248,86.8,0.0743
EMILIN1 (elastin microfibril interfacer 1),3,-0.452,72.9,-0.251
NCR3 (natural cytotoxicity triggering receptor 3),1,0.825,98.3,0.505
NCR3 (natural cytotoxicity triggering receptor 3),2,2.79,137,2.37
NCR3 (natural cytotoxicity triggering receptor 3),3,2.1,124,2.43
SURF2 (surfeit 2),1,0.963,101,2.88
SURF2 (surfeit 2),2,-0.093,80,-0.173
SURF2 (surfeit 2),3,-0.155,78.8,-0.344
RNF138 (ring finger protein 138),1,1.57,113,0.847
RNF138 (ring finger protein 138),2,2.42,130,2.02
RNF138 (ring finger protein 138),3,3.25 (active),147,2.29
TBX21 (T-box transcription factor 21),1,-0.127,79.4,-0.165
TBX21 (T-box transcription factor 21),2,0.11,84.1,-0.072
TBX21 (T-box transcription factor 21),3,-0.412,73.7,-0.801
SYVN1 (synoviolin 1),1,0.166,85.2,0.0914
SYVN1 (synoviolin 1),2,-1.01,61.7,-0.0401
SYVN1 (synoviolin 1),3,-0.149,78.9,-0.404
APOL4 (apolipoprotein L4),1,1.23,106,0.695
APOL4 (apolipoprotein L4),2,-0.92,63.6,-0.432
APOL4 (apolipoprotein L4),3,-0.948,63,0.0777
OR52N4 (olfactory receptor family 52 subfamily N member 4),1,0.366,89.2,0.857
OR52N4 (olfactory receptor family 52 subfamily N member 4),2,0.621,94.2,0.295
OR52N4 (olfactory receptor family 52 subfamily N member 4),3,0.821,98.2,-0.209
"PCDHGB3 (protocadherin gamma subfamily B, 3)",1,4.47 (active),171,2.8
"PCDHGB3 (protocadherin gamma subfamily B, 3)",2,0.391,89.7,0.227
"PCDHGB3 (protocadherin gamma subfamily B, 3)",3,-0.0428,81,-0.421
MORC1 (MORC family CW-type zinc finger 1),1,-0.198,77.9,0.366
MORC1 (MORC family CW-type zinc finger 1),2,-0.701,67.9,-0.628
MORC1 (MORC family CW-type zinc finger 1),3,-1.12,59.6,-1.6
ELAC2 (elaC ribonuclease Z 2),1,-2.26,37,-2.56
ELAC2 (elaC ribonuclease Z 2),2,0.849,98.8,0.746
ELAC2 (elaC ribonuclease Z 2),3,0.813,98.1,0.972
IFNAR2 (interferon alpha and beta receptor subunit 2),1,-1.76,46.9,-1.33
IFNAR2 (interferon alpha and beta receptor subunit 2),2,-0.315,75.6,-0.504
IFNAR2 (interferon alpha and beta receptor subunit 2),3,-0.926,63.5,0.794
LHX9 (LIM homeobox 9),1,-0.316,75.6,0.309
LHX9 (LIM homeobox 9),2,0.316,88.2,0.699
LHX9 (LIM homeobox 9),3,1.54,113,0.71
PLIN3 (perilipin 3),1,0.00608,82,-0.491
PLIN3 (perilipin 3),2,0.457,91,1.18
PLIN3 (perilipin 3),3,1.54,113,0.603
C10orf90 (chromosome 10 open reading frame 90),1,-0.708,67.8,-0.861
C10orf90 (chromosome 10 open reading frame 90),2,0.435,90.5,0.382
C10orf90 (chromosome 10 open reading frame 90),3,-0.526,71.4,-1.29
OR51F2 (olfactory receptor family 51 subfamily F member 2),1,-0.101,79.9,0.666
OR51F2 (olfactory receptor family 51 subfamily F member 2),2,-1.09,60.2,-0.17
OR51F2 (olfactory receptor family 51 subfamily F member 2),3,4.82 (active),178,3.34
PLA2G1B (phospholipase A2 group IB),1,-0.246,77,-0.383
PLA2G1B (phospholipase A2 group IB),2,1.86,119,2.15
PLA2G1B (phospholipase A2 group IB),3,-0.43,73.3,0.0162
GPR18 (G protein-coupled receptor 18),1,-0.163,78.6,-0.159
GPR18 (G protein-coupled receptor 18),2,0.426,90.4,-0.414
GPR18 (G protein-coupled receptor 18),3,3.21 (active),146,2.54
DPT (dermatopontin),1,-0.744,67.1,-0.362
DPT (dermatopontin),2,-2.43,33.6,-1.57
DPT (dermatopontin),3,-0.0136,81.6,0.753
KRT14 (keratin 14),1,-0.362,74.7,-0.398
KRT14 (keratin 14),2,-0.959,62.8,-1.5
KRT14 (keratin 14),3,-0.821,65.6,-0.0101

An excerpt from above, limited to “total luciferase, z-score”.
HINT1P1 (histidine triad nucleotide binding protein 1 pseudogene 1) #3: 0.4
EMILIN1 (elastin microfibril interfacer 1) #1: -0.0923
EMILIN1 (elastin microfibril interfacer 1) #2: 0.248
EMILIN1 (elastin microfibril interfacer 1) #3: -0.452
